The campaign covered roughly 300,000 compounds. About 3,700 (1.2%) were called active. The inconclusive results got no clear call from the source; some entries with a clear call stand among them for comparison. Calls follow the shape of the full dose curve; tested in HEK293 cells. Where the call is inconclusive, the potency comes from a doubtful curve fit.
Assay: qHTS for Inhibitors of binding or entry into cells for Lassa Virus; also: nearly all actives have a fitted effect of over 50% in size
Details: Lassa virus pseudotype entry inhibition, cell reporter; series mostly up to 37.9 µM
Potency is read from the fitted curve at half-maximal effect.

| Compound | Potency |
| --- | --- |
| Cc1cc(OCc2nn[nH]n2)c2c(C)c(CC(=O)O)c(=O)oc2c1 | inconclusive: 20.6 µM [activator, partial curve, poor fit] |
| Cc1ccccc1-n1c(/C=C/c2c(C)[nH]c3ccccc23)nc2ccccc2c1=O | inconclusive: 7.08 µM [inhibitor, partial curve, poor fit] |
| Cc1cccc(NC(=S)NCC2CCCO2)c1 (stereo not drawn) | inactive |
| COc1ccc(/C=N/Nc2ccccc2C(=O)O)cc1 | inconclusive: 11.2 µM [inhibitor, partial curve, poor fit] |
| CCN(CC)S(=O)(=O)c1ccc(NC(=O)[C@@H](NC(=O)c2cc(OC)cc(OC)c2)C(C)C)cc1 | inconclusive: 35.5 µM [inhibitor, single point] |
| COC1C(CO)OC(n2cnc3c(=S)nc(N)[nH]c32)C1O (stereo not drawn) | inconclusive: 35.5 µM [activator, single point] |
| CCOC(=O)N1CCN(C(=O)CN(c2ccc(OCc3ccccc3)cc2)S(C)(=O)=O)CC1 | inconclusive: 8.2 µM [inhibitor, partial curve, poor fit] |
| Nc1ccc(C23CC4CC(CC(O)(C4)C2)C3)cc1 | inactive |
| COc1ccc(-n2nc(C(=O)NCC(=O)NCc3ccc(F)cc3)c3ccccc3c2=O)cc1OC | inconclusive: 35.5 µM [inhibitor, single point] |
| COC(=O)c1cc2c(s1)-c1ccccc1CC2 | inactive |
| O=C(Cc1cccc2ccccc12)NCCOc1ccccc1F | inactive |
| Nc1cccnc1S(=O)(=O)c1ccccc1 | inconclusive: 35.5 µM [activator, single point] |
| COc1ccccc1Oc1ccc(S(=O)(=O)Nc2cccnc2)cc1 | inconclusive: 29.1 µM [inhibitor, single point] |
| CCC(c1nnnn1Cc1ccccc1)N(Cc1cc2cc(OC)ccc2[nH]c1=O)CC1CCCO1 (stereo not drawn) | inconclusive: 6.31 µM [inhibitor, full curve, poor fit] |
| CC(O)CNc1nc2sc3c(c2c(=O)n1CCc1ccccc1)CCCCC3 (stereo not drawn) | active: 25.9 µM |
| CS(=O)(=O)N(CC(=O)NCc1ccco1)c1ccc(OCc2ccccc2)cc1 | inconclusive: 7.3 µM [inhibitor, partial curve] |
| COc1ccc(C(=O)NC(C(=O)NCc2ccccn2)C(C)C)cc1 (stereo not drawn) | inactive |
| CCCCN1C(=O)c2ccc(C(=O)N(C)CC(=O)Nc3ccc(OCC)c(OCC)c3)cc2C1=O | inconclusive: 25.1 µM [activator, single point] |
| COc1ccc(C2=NN(C(=O)CSc3nc4ccccc4s3)C(c3ccc(OC)cc3)C2)cc1 (stereo not drawn) | inconclusive: 15.8 µM [inhibitor, single point] |
| N#CCC(=O)Nc1ccc(C(=O)OCC(=O)Nc2sc3c(c2C#N)CCCC3)cc1 | inconclusive: 0.447 µM [activator, partial curve, poor fit] |
| COc1ccc(N(Cc2cc3ccccc3[nH]c2=O)C(=O)c2cccc(Cl)c2)cc1 | inconclusive: 14.1 µM [inhibitor, partial curve, poor fit] |
| CCOCCCNC(=O)c1ccc(-n2c(-c3ccccc3)cc3c2CCCC3)cc1 | inconclusive: 35.5 µM [inhibitor, single point] |
| C/C=C/c1ccc(OCC(=O)O)c(OC)c1 | inactive |

Part of the list above, as tab-separated lines:
Compound	Potency
CCN(CC)S(=O)(=O)c1ccc(NC(=O)[C@@H](NC(=O)c2cc(OC)cc(OC)c2)C(C)C)cc1	inconclusive: 35.5 µM [inhibitor, single point]
O=C(Cc1cccc2ccccc12)NCCOc1ccccc1F	inactive

Additional records:

| Compound | Potency |
| --- | --- |
| O=C(N/N=C/c1c[nH]c2ccccc12)c1ccn(Cc2ccc(Cl)cc2Cl)n1 | inconclusive: 8.91 µM [inhibitor, partial curve, poor fit] |
| CCCc1nc2ccccc2c(=O)n1-c1ccccc1OC | inconclusive: 1.41 µM [activator, full curve, poor fit] |
| Cc1ccc(NC(=O)/C=C\C(=O)N(c2ccc(C(C)C)cc2)C(C(=O)NCc2ccco2)c2ccc(Cl)cc2)cc1 (stereo not drawn) | inconclusive: 10 µM [inhibitor, partial curve] |
| CCC(=NCCc1c[nH]c2ccccc12)c1c(O)n(C)c(=O)n(C)c1=O | inconclusive: 9.2 µM [inhibitor, partial curve] |
| CN(C(=O)OCc1ccccc1)C(CC(N)=O)C(=O)O (stereo not drawn) | inconclusive: 29.1 µM [activator, single point] |
| COc1ccc(CCNc2nc(-c3cccnc3)nc3ccccc23)cc1OC | inconclusive: 35.5 µM [inhibitor, partial curve, poor fit] |
| Cc1cc(C)c(NC(=O)Cn2c(=O)c3cccn3c3ccccc32)c(C)c1 | inconclusive: 22.4 µM [inhibitor, single point] |
| COc1cccc(-n2ccnc2SCC(=O)Nc2c(C)cc(C)cc2C)c1 | inactive |
| CCN(CC)c1ccc2cc(C(=O)Nc3ccccn3)c(=O)oc2c1 | inconclusive: 2.82 µM [inhibitor, full curve, poor fit] |
| C=C(C)c1ccc(C(C)(C)NC(=O)N(Cc2ccccc2)Cc2ccco2)cc1 | inconclusive: 0.146 µM [activator, full curve, poor fit] |
| C=Cn1cc[n+](CC(=O)c2ccc(-c3ccccc3)cc2)c1 | inactive |
| CC1CCCN(C(=O)c2cc3ccc4cccnc4c3[nH]2)C1 (stereo not drawn) | inactive |
| CCCCOc1ccc2c(c1)/C(=C(\C(Cl)=C(Cl)Cl)[N+](=O)[O-])N2 | inactive |
| CCOc1cccc2cc(C(=O)N3CCc4ccccc4C3)c(=O)oc12 | inactive |
| C=CCNCCOCCOc1ccc(C)cc1Br | inconclusive: 4.47 µM [activator, single point] |
| COC(=O)C1=C(C)NC(=O)/C1=C\c1cc(C)n(-c2ccccc2F)c1C | inconclusive: 5.62 µM [inhibitor, full curve, poor fit] |
| CCOC(=O)c1cc(C)sc1NC(=O)CSc1nnnn1C | inactive |
| CCN(CC)Cc1cc(NC2=NS(=O)(=O)c3ccccc32)ccc1OC(=O)c1ccccc1 | inactive |
| O=C(NCCN1CCOCC1)c1c(O)nc2sccn2c1=O | inactive |
| Cc1ccc(-n2c(C)cc(-c3csc(N)n3)c2C)cc1 | inactive |
| CCOc1ccccc1N1CC(C(=O)Nc2cc(Cl)ccc2C)CC1=O (stereo not drawn) | inactive |
| CSc1ccc(-c2nc(CSCC(=O)NCCCN3CCOCC3)c(C)o2)cc1 | inactive |
| COc1ccc(CCNC(=O)CCn2c(=O)c3ccccc3n(Cc3ccccc3F)c2=O)cc1OC | inactive |

| Compound | Potency |
| --- | --- |
| O=c1cc(-c2ccc(O)cc2)oc2cc(O)cc(O)c12 | inconclusive: 4.11 µM [activator, full curve] |
| c1ccc(SCc2nc3ccccc3[nH]2)nc1 | inactive |
| Cc1cccc(C(=O)OCC(=O)N2CCCCCC2)c1 | inconclusive: 5.62 µM [activator, single point] |
| Cc1ccc(NC2=C/C(=N\S(=O)(=O)c3cccs3)c3ccccc3C2=O)c(C)c1 | inconclusive: 3.55 µM [inhibitor, full curve] |
| Cc1ccc(CNC(=O)C2CCN(c3nc(C)cc(C)n3)CC2)cc1 | inactive |
| O=C(c1ccc(S(=O)(=O)N2CCCC2)cc1)N(c1ccc(F)cc1)C1C=CS(=O)(=O)C1 (stereo not drawn) | inconclusive: 1 µM [inhibitor, partial curve, poor fit] |
| CC(C(=O)NCCSCc1cccc(Cl)c1)N(c1ccccc1)S(C)(=O)=O (stereo not drawn) | inconclusive: 3.98 µM [inhibitor, full curve] |
| Cc1csc(NC(=O)CSc2nc3sc(C)c(C)c3c(=O)[nH]2)n1 | inactive |
| O=c1c2c3nc4ccccc4nc3n(-c3ccc4c(c3)OCCO4)c2ncn1C1CCCC1 | inconclusive: 6.31 µM [inhibitor, partial curve, poor fit] |
| COc1ccc(N2C(=O)C3CCCN3C2=O)cc1 (stereo not drawn) | inconclusive: 0.517 µM [activator, partial curve, poor fit] |
| O=C(Nc1ccc(N2CCCC2)cc1)c1cccc(-c2cc3ccccc3oc2=O)c1 | inconclusive: 12.6 µM [inhibitor, partial curve, poor fit] |
| O=C(COc1ccc(Cl)cc1Cl)NCC1(N2CCOCC2)CCCCC1 | inconclusive: 0.631 µM [inhibitor, single point] |
| CCCOc1ccc(C2=NNC(c3cccs3)=Nc3ccc(OC)cc32)cc1 | inactive |
| CC(C)c1ccc(/C=C2\SC(=S)N(CCC(=O)NCCCn3ccnc3)C2=O)cc1 | inconclusive: 35.5 µM [inhibitor, single point] |
| Cc1ccccc1-n1c(C)nc2ccsc2c1=O | inconclusive: 7.94 µM [activator, partial curve, poor fit] |
| Cc1nn(-c2ccccc2)c2sc(C(=O)N(CC(=O)NC(C)(C)C)Cc3ccco3)cc12 | inconclusive: 31.6 µM [inhibitor, partial curve, poor fit] |
| COc1ccc(CNC(=O)C2CCN(S(=O)(=O)c3c(C)noc3/C=C/c3ccccc3F)CC2)cc1 | inconclusive: 35.5 µM [activator, partial curve, poor fit] |
| CCOC(=O)c1c(NC(=O)CN2CCN(C(=O)C3CCCO3)CC2)sc(C)c1C (stereo not drawn) | inconclusive: 3.98 µM [inhibitor, partial curve, poor fit] |
| O=C(NNC1=C(C(=O)C(F)(F)F)CCC1)c1cccc(O)c1 | inconclusive: 35.5 µM [inhibitor, partial curve, poor fit] |
| N#C/C(=N\Nc1ccc(Cl)cc1)C(=N)N1CCCCC1 | inconclusive: 12.6 µM [inhibitor, single point] |
| COc1ccc(Cn2ccc3nc(C)c(C(=O)Nc4ccc(OC)cc4)cc3c2=O)cc1 | inconclusive: 35.5 µM [inhibitor, single point] |
| COc1ccccc1NC(=O)CSc1c2c(nc3ccccc13)CCC2 | inactive |

Shown as tab-separated lines: part of the list above.
Compound	Potency
Cc1ccc(NC2=C/C(=N\S(=O)(=O)c3cccs3)c3ccccc3C2=O)c(C)c1	inconclusive: 3.55 µM [inhibitor, full curve]
Cc1ccc(CNC(=O)C2CCN(c3nc(C)cc(C)n3)CC2)cc1	inactive

Source: PubChem BioAssay AID540256 (National Center for Advancing Translational Sciences (NCATS), 2011)
